Results deposited as PubChem BioAssay AID1224826 (NIAID, 2016).
This is an unselected part of about 17,000 reagents. About 1,110 of all reagents (6.6%) count as active. 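Active means lowered or raised reporter signal; replicate intensities are raw and not normalised per plate.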 Reagents against one gene are numbered here.

- Aim: 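Genes that change LPS-induced Tnf promoter activity in mouse macrophages when knocked down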 (primary screen)
- System: RAW264.7 G9 macrophages from mouse bearing reporters for p65 (GFP) and the Tnf promoter (mCherry)
- Reagents: siRNA pool against mouse genes, 100 nM
- Timing: 16 h of LPS stimulation, after 2 days of siRNA transfection
- Challenge: bacterial lipopolysaccharide (Salmonella minnesota R595), 10 ng/ml
- Measurement: 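Imaged Tnf reporter mCherry in nuclei, minus background, normalised per plate to the median and expressed as robust z-scores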
- Direction: Tnf reporter robust z-score: higher = stronger Tnf promoter reporter signal after LPS; Tnf reporter intensity: higher = stronger Tnf promoter reporter signal
- Rule for the call: 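a well counts as active at a score of -1.3 or below (Tlr4 knock-down control median) or above 3 (raised signal); controls and wells holding fewer than 50 cells are excluded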
- Meaning of the calls: active = Tnf reporter clearly lowered or raised; inactive = no clear change in Tnf reporter

gene	pool no.	Tnf reporter robust z-score	fewer than 50 cells in well	Tnf reporter intensity, replicate 1	Tnf reporter intensity, replicate 2	Outcome
Klf6 (Kruppel-like transcription factor 6)	1	-0.24	enough cells in well	217	185	inactive
Fam193b (family with sequence similarity 193, member B)	1	-0.92	enough cells in well	135	151	inactive
Prnp (prion protein)	1	0.89	enough cells in well	280	285	inactive
Peli2 (pellino 2)	1	0.08	enough cells in well	153	74.7	inactive
Vrk2 (vaccinia related kinase 2)	1	-0.33	enough cells in well	144	127	inactive
Ubac1 (ubiquitin associated domain containing 1)	1		fewer than 50 cells per well; well left out of calls	88.3	28.6	inactive
Slc17a2	1	0	enough cells in well	153	191	inactive
Arpin (actin-related protein 2/3 complex inhibitor)	1		fewer than 50 cells per well; well left out of calls	151	27.4	inactive
Nicn1 (nicolin 1)	1	1.32	enough cells in well	261	225	inactive
Krt15 (keratin 15)	1	-1.21	enough cells in well	169	69.4	inactive
Opalin (oligodendrocytic myelin paranodal and inner loop protein)	1	-0.24	enough cells in well	128	68.4	inactive
Zbtb25 (zinc finger and BTB domain containing 25)	1	-0.31	enough cells in well	190	225	inactive
Fth1 (ferritin heavy polypeptide 1)	1	0.02	enough cells in well	292	206	inactive
Rpgrip1l (Rpgrip1-like)	1	1.19	enough cells in well	273	129	inactive
Plat (plasminogen activator, tissue)	1	-0.46	enough cells in well	215	156	inactive
Or51q1 (olfactory receptor family 51 subfamily Q member 1)	1	0.27	enough cells in well	104	132	inactive
Slain1 (SLAIN motif family, member 1)	1	0.63	enough cells in well	206	242	inactive
Slc17a6	1	1.92	enough cells in well	176	157	inactive
Homer2 (homer scaffolding protein 2)	1	0.63	enough cells in well	220	226	inactive
Sike1 (suppressor of IKBKE 1)	1	0.2	enough cells in well	264	33.6	inactive
Sike1 (suppressor of IKBKE 1)	2		fewer than 50 cells per well; well left out of calls	120	95.2	inactive
Rpn1 (ribophorin I)	1	-1.36	enough cells in well	62.2	76.6	active
Gpa33 (glycoprotein A33 transmembrane)	1	1.42	enough cells in well	359	246	inactive
D930048N14Rik (RIKEN cDNA D930048N14 gene)	1	0.32	enough cells in well	79.1	167	inactive
Get4 (golgi to ER traffic protein 4)	1	2.3	enough cells in well	462	138	inactive
Arpc2 (actin related protein 2/3 complex, subunit 2)	1	-0.23	enough cells in well	147	165	inactive
Nemf (nuclear export mediator factor)	1	0.86	enough cells in well	165	166	inactive
Ppp1r8 (protein phosphatase 1, regulatory subunit 8)	1		fewer than 50 cells per well; well left out of calls	94.2	29.2	inactive
Spink1 (serine peptidase inhibitor, Kazal type 1)	1	-0.79	enough cells in well	190	171	inactive
Fam163b (family with sequence similarity 163, member B)	1	1.58	enough cells in well	255	266	inactive
Or1f19 (olfactory receptor family 1 subfamily F member 19)	1	1.56	enough cells in well	281	181	inactive
Ndufa6 (NADH:ubiquinone oxidoreductase subunit A6)	1	-0.33	enough cells in well	238	73.6	inactive
Atl3 (atlastin GTPase 3)	1	-1.35	enough cells in well	112	65.7	active
Tc2n (tandem C2 domains, nuclear)	1	-0.9	enough cells in well	133	87.7	inactive
Capzb (capping actin protein of muscle Z-line subunit beta)	1		fewer than 50 cells per well; well left out of calls	137	176	inactive
Zc3hav1 (zinc finger CCCH type, antiviral 1)	1	-0.67	enough cells in well	95.4	69.3	inactive
Cd209e (CD209e antigen)	1	-0.63	enough cells in well	120	153	inactive
Prpsap2 (phosphoribosyl pyrophosphate synthetase-associated protein 2)	1	1.86	enough cells in well	308	169	inactive
Tnk1 (tyrosine kinase, non-receptor, 1)	1	-0.29	enough cells in well	160	94.9	inactive
Fbxw21 (F-box and WD-40 domain protein 21)	1	-0.21	enough cells in well	161	115	inactive

4 entries from above, arranged by “Tnf reporter intensity, replicate 2”, high to low.
gene	pool no.	Tnf reporter robust z-score	fewer than 50 cells in well	Tnf reporter intensity, replicate 1	Tnf reporter intensity, replicate 2	Outcome
Zbtb25 (zinc finger and BTB domain containing 25)	1	-0.31	enough cells in well	190	225	inactive
Fth1 (ferritin heavy polypeptide 1)	1	0.02	enough cells in well	292	206	inactive
Plat (plasminogen activator, tissue)	1	-0.46	enough cells in well	215	156	inactive
Rpgrip1l (Rpgrip1-like)	1	1.19	enough cells in well	273	129	inactive
